# From patent publication US20240368549A1, “ENHANCEMENT OF HEMATOPOIETIC STEM CELL AND HEMATOPOIETIC PROGENITOR CELL EXPANSION WITH AGENTS THAT ACTIVATE TAM RECEPTORS” (CANADIAN BLOOD SERVICES, priority 2021, published 2024)
# Tested on: AXL and GAS6 genes
# Assay: AXL and GAS6 gene expression by qPCR in expanded HSPCs
# Type: cell-based, human
SMILES,"expression of AXL and GAS6 (vs STFL control, 14 days)","effect of TET inhibition on expression of AXL and GAS6 (30 μM, day-10 to day-14)"
"O.O=C1O[C@H]([C@@H](O)CO)C(O)=C1OP(=O)([O-])[O-].[Mg+2] [AA2P, L-ascorbic acid 2-phosphate magnesium salt hydrate]",increased expression,
Nc1nc(=O)n(-c2cccc(-c3ccccc3)c2)cc1Cl [Bobcat339],,reduced the expression
